Literature values, collected in patent publication US8034799B2, “Preventing and/or treating cardiovascular disease and/or associated heart failure” (Philera New Zealand Limited, priority 2002, dated 2011).
At least one compound was matched to its structure with a doubt left.

By UniProt entry, the sequences of proteins in these tests, tags left out.
UniProt P68403, whole entry: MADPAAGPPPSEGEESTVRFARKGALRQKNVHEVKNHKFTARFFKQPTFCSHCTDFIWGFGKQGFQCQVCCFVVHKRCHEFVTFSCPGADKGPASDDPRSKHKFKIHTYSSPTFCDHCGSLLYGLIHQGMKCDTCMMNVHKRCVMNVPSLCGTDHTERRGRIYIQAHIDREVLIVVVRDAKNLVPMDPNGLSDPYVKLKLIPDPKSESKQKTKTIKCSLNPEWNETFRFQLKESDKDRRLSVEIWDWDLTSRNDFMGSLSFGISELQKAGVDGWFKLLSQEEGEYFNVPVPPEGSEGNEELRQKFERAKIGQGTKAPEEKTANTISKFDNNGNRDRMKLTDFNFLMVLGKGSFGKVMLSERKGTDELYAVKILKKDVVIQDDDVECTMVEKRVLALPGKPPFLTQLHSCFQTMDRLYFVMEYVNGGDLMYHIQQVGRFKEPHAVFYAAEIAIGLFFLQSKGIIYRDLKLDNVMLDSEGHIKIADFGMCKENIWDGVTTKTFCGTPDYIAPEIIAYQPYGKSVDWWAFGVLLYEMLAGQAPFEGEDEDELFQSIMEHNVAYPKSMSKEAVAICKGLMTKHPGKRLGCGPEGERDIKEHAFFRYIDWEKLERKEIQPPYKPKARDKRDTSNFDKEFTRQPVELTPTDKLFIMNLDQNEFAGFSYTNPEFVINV

Molecular target: T1, PKC b (Rattus norvegicus, UniProt P68403)
T1 construct: attenuates glomerular expression of TGF-b and extracellular matrix proteins such as fibronectin and type IV collagen; host or cells: glomeruli of diabetic rodents (in vivo)
Conditions: in vivo; cited from earlier work

CN(C)C[C@@H]1CCn2cc(c3ccccc32)C2=C(C(=O)NC2=O)c2cn(c3ccccc23)CCO1 [LY333531]
glomerular expression of TGF-b and extracellular matrix proteins such as fibronectin and type IV collagen: attenuates
